Source: the supplement of paper PMC7125110
± gives the standard error. Many entries were measured with a wide error.

B1: glmS ribozyme (parent)
chain: AUAAAAGCGCCAGAACUACAGAAAUGUAGUUGACGAGGAGGAGGUUUAUCGAAUUUUCGGCGGAUGCCUCCAAA

Variants of: B1
Assay: self-cleavage kobs at 40 uM GlcN6P; higher = faster cleavage; RNA array
Conditions: with glucosamine-6-phosphate
Outline: (§1)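 Tiles bearing barcoded ribozyme variants, transcribed in situ by E. coli RNA polymerase on sequenced MiSeq chips, were imaged over ~14 h at 37 °C using a hybridised Cy3 probe. Glucosamine-6-phosphate was supplied at 40 μM to 10 mM in HEPES/KCl/Mg(OAc)2 buffer. kobs came from one- or two-exponential decay fits to normalised per-tile medians, and weighted Michaelis–Menten fits then provided kcat and KM.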
With G7C C50G C67U the “self-cleavage kobs at 40 uM GlcN6P” value was 3.53e-05 ± 2.9e-05 s⁻¹.
For C58A C70U, the “self-cleavage kobs at 40 uM GlcN6P” value was 2.42e-05 ± 1.4e-05 s⁻¹.
With U47A C70G the “self-cleavage kobs at 40 uM GlcN6P” value was 2.77e-05 ± 1.6e-05 s⁻¹.
For C70G C71U, the “self-cleavage kobs at 40 uM GlcN6P” value was 1.57e-05 ± 1.2e-05 s⁻¹.
U47C C70G was tested, and the “self-cleavage kobs at 40 uM GlcN6P” value was 2.91e-05 ± 1.6e-05 s⁻¹.
For A6U U57G C67G, the “self-cleavage kobs at 40 uM GlcN6P” value was 2.47e-05 ± 2.4e-05 s⁻¹.
In the case of A52G U55G, the “self-cleavage kobs at 40 uM GlcN6P” value is reported as 1.59e-05 ± 1.2e-05 s⁻¹.
In the case of C11A C50U C61U C67G, the “self-cleavage kobs at 40 uM GlcN6P” value is reported as 3.68e-05 ± 2.3e-05 s⁻¹.
In the case of A39U U45C, the “self-cleavage kobs at 40 uM GlcN6P” value is reported as 2.22e-05 ± 1.4e-05 s⁻¹.
With A12U G44A the “self-cleavage kobs at 40 uM GlcN6P” value was 1.92e-05 ± 1.3e-05 s⁻¹.
In the case of G40C A64G, the “self-cleavage kobs at 40 uM GlcN6P” value is reported as 2.41e-05 ± 1.6e-05 s⁻¹.
For G7U G13U C16U C50G U56G G66U, the “self-cleavage kobs at 40 uM GlcN6P” value was 2.24e-05 ± 2.2e-05 s⁻¹.
With C10A C68G the “self-cleavage kobs at 40 uM GlcN6P” value was 1.98e-05 ± 1.8e-05 s⁻¹.
In the case of C10A C11U C70A, the “self-cleavage kobs at 40 uM GlcN6P” value is reported as 3.27e-05 ± 2.7e-05 s⁻¹.
In the case of A48U C71U, the “self-cleavage kobs at 40 uM GlcN6P” value is reported as 2.18e-05 ± 1.6e-05 s⁻¹.
In the case of C10U C34A C50A G51U C70A, the “self-cleavage kobs at 40 uM GlcN6P” value is reported as 5.78e-05 ± 3.1e-05 s⁻¹.

Variants of: B1
Assay: self-cleavage kobs at 10000 uM GlcN6P; higher = faster cleavage; RNA array
Conditions: with glucosamine-6-phosphate
Outline: as §1
With G7C C50G C67U the “self-cleavage kobs at 10000 uM GlcN6P” value was 3.11e-05 ± 1.6e-05 s⁻¹.
With C50G C71G the “self-cleavage kobs at 10000 uM GlcN6P” value was 0.0013 ± 0.00081 s⁻¹.
With C50G C61U the “self-cleavage kobs at 10000 uM GlcN6P” value was 0.000559 ± 0.0005 s⁻¹.
With C11A C50U C61U C67G the “self-cleavage kobs at 10000 uM GlcN6P” value was 2.59e-05 ± 1.5e-05 s⁻¹.
For U45A U47A, the “self-cleavage kobs at 10000 uM GlcN6P” value was 0.0727 ± 0.054 s⁻¹.
For C10A C68G, the “self-cleavage kobs at 10000 uM GlcN6P” value was 1.72e-05 ± 1.3e-05 s⁻¹.

Variants of: B1
Assay: KM; higher = weaker cofactor use; RNA array
Conditions: with glucosamine-6-phosphate
Outline: as §1
C50G C71G gave a KM of 34.3 ± 19 µM.
Variant A36C U49G has a KM of 2830 ± 1600 µM.
In the case of C58A C70U, the KM is reported as 718 ± 270 µM.
G32U U46G was tested, and the KM was 9000 ± 5400 µM.
A36C C71A gave a KM of 41 ± 31 µM.
G35C G37C gave a KM of 8.1 ± 7 µM.
In the case of U47A C70G, the KM is reported as 103 ± 57 µM.
A33U U54G was tested, and the KM was 3070 ± 2200 µM.
U55G U56G was tested, and the KM was 3060 ± 1800 µM.
Work on C70A C71G yielded a KM of 80.6 ± 53 µM.
In the case of C50G C61U, the KM is reported as 85.8 ± 53 µM.
U30A C58A showed a KM of 3870 ± 2900 µM.
Variant G37U U49A has a KM of 312 ± 290 µM.
A42G U46G gave a KM of 4310 ± 2700 µM.
With C70G C71U the KM was 401 ± 170 µM.
In the case of U47C C70G, the KM is reported as 155 ± 95 µM.
U30G U31G gave a KM of 913 ± 520 µM.
In the case of A52G U55G, the KM is reported as 3170 ± 560 µM.
C61U C70U was tested, and the KM was 1160 ± 870 µM.
Variant U55C A64U has a KM of 1210 ± 750 µM.
In the case of U45A U47A, the KM is reported as 745 ± 370 µM.
Work on U31A C67U yielded a KM of 995 ± 530 µM.
With G40U U49G C71G the KM was 1730 ± 1600 µM.
Work on C61G G62C A64G U65A G66U C67G yielded a KM of 84.6 ± 56 µM.
A39U U69G showed a KM of 441 ± 320 µM.
Variant A39U U45C has a KM of 6420 ± 3600 µM.
In the case of U45A G59U, the KM is reported as 20700 ± 10000 µM.
U47G C58U showed a KM of 3070 ± 1900 µM.
Work on A52G A64G yielded a KM of 3690 ± 1500 µM.
With U45A C58G the KM was 4010 ± 2100 µM.
A53G C70G showed a KM of 17.9 ± 11 µM.
G62U U65A gave a KM of 29.5 ± 26 µM.
G29A G32A C71A showed a KM of 3640 ± 3500 µM.
A53G U54G gave a KM of 169 ± 170 µM.
Work on G32U C67G yielded a KM of 1520 ± 570 µM.
G40C A52G was tested, and the KM was 2990 ± 1200 µM.
With G40C A64G the KM was 2650 ± 1700 µM.
Work on A64U C71U yielded a KM of 4600 ± 4000 µM.
U30A U45A C50U was tested, and the KM was 1120 ± 750 µM.
G32A A39C was tested, and the KM was 3190 ± 1300 µM.
For A53U U56A, the KM was 1820 ± 450 µM.
U30G A64C gave a KM of 4950 ± 1100 µM.
Variant U30C U69C has a KM of 591 ± 210 µM.
In the case of G29U C61G, the KM is reported as 2320 ± 1900 µM.
Work on G32A G37A yielded a KM of 25600 ± 7300 µM.
Variant A48U U65G C70U has a KM of 1870 ± 1200 µM.
Variant C50U U57C G63A has a KM of 117 ± 69 µM.
With G43A U69A the KM was 101 ± 53 µM.
Variant A42G C70A has a KM of 185 ± 140 µM.
A42G A48G gave a KM of 13600 ± 2200 µM.
For C16U G29A, the KM was 660 ± 350 µM.
With G35U U54G U56A the KM was 210 ± 130 µM.
In the case of G29U U30G, the KM is reported as 1780 ± 820 µM.
Work on A48U C71U yielded a KM of 1890 ± 590 µM.
In the case of C16U A53G, the KM is reported as 1210 ± 760 µM.
For A42U A53U, the KM was 1280 ± 640 µM.
G38A U49A C58U showed a KM of 862 ± 380 µM.
With U55G C58G the KM was 6790 ± 1400 µM.
Variant U56A G66C has a KM of 933 ± 490 µM.
For U47G A53G, the KM was 804 ± 250 µM.
A33G G62U gave a KM of 64.9 ± 52 µM.

Variants of: B1
Assay: self-cleavage kobs at 2500 uM GlcN6P; higher = faster cleavage; RNA array
Conditions: with glucosamine-6-phosphate
Outline: as §1
U47A C70G was tested, and the “self-cleavage kobs at 2500 uM GlcN6P” value was 0.00234 ± 0.0016 s⁻¹.
In the case of U30G U31G, the “self-cleavage kobs at 2500 uM GlcN6P” value is reported as 0.0457 ± 0.025 s⁻¹.
A6U U57G C67G was tested, and the “self-cleavage kobs at 2500 uM GlcN6P” value was 4.42e-05 ± 3.7e-05 s⁻¹.
G29A G32A C71A was tested, and the “self-cleavage kobs at 2500 uM GlcN6P” value was 7.14e-05 ± 3.9e-05 s⁻¹.
With U30G A64C the “self-cleavage kobs at 2500 uM GlcN6P” value was 1.86e-05 ± 1.5e-05 s⁻¹.
For C10U C34A C50A G51U C70A, the “self-cleavage kobs at 2500 uM GlcN6P” value was 4.76e-05 ± 2.8e-05 s⁻¹.

Variants of: B1
Assay: self-cleavage kobs at 640 uM GlcN6P; higher = faster cleavage; RNA array
Conditions: with glucosamine-6-phosphate
Outline: as §1
With A6U U57G C67G the “self-cleavage kobs at 640 uM GlcN6P” value was 3.14e-05 ± 3.1e-05 s⁻¹.
With U55C A64U the “self-cleavage kobs at 640 uM GlcN6P” value was 1.2e-05 ± 1e-05 s⁻¹.
In the case of U47G C58U, the “self-cleavage kobs at 640 uM GlcN6P” value is reported as 2.91e-05 ± 1.6e-05 s⁻¹.
For U45A C58G, the “self-cleavage kobs at 640 uM GlcN6P” value was 3.61e-05 ± 1.9e-05 s⁻¹.
For A48U U65G C70U, the “self-cleavage kobs at 640 uM GlcN6P” value was 3.1e-05 ± 1.9e-05 s⁻¹.
A42U A53U was tested, and the “self-cleavage kobs at 640 uM GlcN6P” value was 2.24e-05 ± 1.5e-05 s⁻¹.

Variants of: B1
Assay: self-cleavage kobs at 160 uM GlcN6P; higher = faster cleavage; RNA array
Conditions: with glucosamine-6-phosphate
Outline: as §1
With U45A C58G the “self-cleavage kobs at 160 uM GlcN6P” value was 3.87e-05 ± 3e-05 s⁻¹.
In the case of C10A C11U C70A, the “self-cleavage kobs at 160 uM GlcN6P” value is reported as 7.65e-05 ± 4.1e-05 s⁻¹.
